{"sequences": {"note": "Amino acid sequences for entries named in this document (tags omitted).", "UniProt P35414": "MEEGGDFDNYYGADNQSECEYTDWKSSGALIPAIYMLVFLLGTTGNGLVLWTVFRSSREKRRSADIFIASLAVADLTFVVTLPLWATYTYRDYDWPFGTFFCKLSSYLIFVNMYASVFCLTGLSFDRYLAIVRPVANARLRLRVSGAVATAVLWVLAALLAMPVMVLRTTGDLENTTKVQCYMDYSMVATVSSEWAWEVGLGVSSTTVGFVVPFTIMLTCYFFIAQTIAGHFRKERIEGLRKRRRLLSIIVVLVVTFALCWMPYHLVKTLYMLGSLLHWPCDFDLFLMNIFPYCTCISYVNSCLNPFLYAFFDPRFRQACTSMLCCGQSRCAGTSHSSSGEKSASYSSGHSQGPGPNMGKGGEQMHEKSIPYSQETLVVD"}, "source": "patent US7947280B2", "about": "(priority 2003, dated 2011)", "target": "APJ receptor tagged with hemagluttinin (HA) peptide (UniProt P35414)", "assay": "anti-HA immunoblot after anti-GFP immunoprecipitation, transfected HEK-293 cells", "note": "No constants are given. Whether binding was seen depends on the method and setting. Some binding calls cover weakened binding; strength is not graded here."}
{"substance": "APJ receptor tagged with hemagluttinin (HA) peptide (from UniProt P35414 1-380)", "values": [{"measurement": "binding", "result": "binds"}]}
